According to publication PMC7102939, “N 1-Methylpseudouridine substitution enhances the performance of synthetic mRNA switches in cells”:
The exact form of at least one protein or probe is not confirmed. Weaker means in comparison with the reference protein, sequence or condition of that experiment.

Test system: U1A
Assay: EMSA
Details: 1 uM RNA, 4 C 30 min, 12% native PAGE at 4 C, 1x from 5x buffer: U1A 20 mM HEPES pH 7.5, 80 mM KCl, 20 mM NaCl, 2 mM DTT, MS2CP 40 mM HEPES pH 7.5, 10 mM NaCl, recombinant protein, protein details: His

“GACAGCAUUGUACCCAGAGUCUGUCCCCAGACAUUGCACCUGGCGCUGUC [2x U1A aptamer, native U]”: binds.
“GACAGCAUUGUACCCAGAGUCUGUCCCCAGACAUUGCACCUGGCGCUGUC [2x U1A aptamer, Ψ]”: binds more weakly (relatively weaker than native U and m1Ψ, all U replaced by pseudouridine).
“GACAGCAUUGUACCCAGAGUCUGUCCCCAGACAUUGCACCUGGCGCUGUC [2x U1A aptamer, m1Ψ]”: binds (affinity similar to native U, all U replaced by N1-methylpseudouridine).
